The results in this text go back to the supplement of paper PMC12823440, “Inhibitors supercharge kinase turnover through native proteolytic circuits” (Nature, 2025).

By UniProt entry, the sequences of proteins in these tests, tags left out. Where a name states a change or a piece, a line headed by the entry shows the natural chain unless it says otherwise.
UniProt Q8IWU2: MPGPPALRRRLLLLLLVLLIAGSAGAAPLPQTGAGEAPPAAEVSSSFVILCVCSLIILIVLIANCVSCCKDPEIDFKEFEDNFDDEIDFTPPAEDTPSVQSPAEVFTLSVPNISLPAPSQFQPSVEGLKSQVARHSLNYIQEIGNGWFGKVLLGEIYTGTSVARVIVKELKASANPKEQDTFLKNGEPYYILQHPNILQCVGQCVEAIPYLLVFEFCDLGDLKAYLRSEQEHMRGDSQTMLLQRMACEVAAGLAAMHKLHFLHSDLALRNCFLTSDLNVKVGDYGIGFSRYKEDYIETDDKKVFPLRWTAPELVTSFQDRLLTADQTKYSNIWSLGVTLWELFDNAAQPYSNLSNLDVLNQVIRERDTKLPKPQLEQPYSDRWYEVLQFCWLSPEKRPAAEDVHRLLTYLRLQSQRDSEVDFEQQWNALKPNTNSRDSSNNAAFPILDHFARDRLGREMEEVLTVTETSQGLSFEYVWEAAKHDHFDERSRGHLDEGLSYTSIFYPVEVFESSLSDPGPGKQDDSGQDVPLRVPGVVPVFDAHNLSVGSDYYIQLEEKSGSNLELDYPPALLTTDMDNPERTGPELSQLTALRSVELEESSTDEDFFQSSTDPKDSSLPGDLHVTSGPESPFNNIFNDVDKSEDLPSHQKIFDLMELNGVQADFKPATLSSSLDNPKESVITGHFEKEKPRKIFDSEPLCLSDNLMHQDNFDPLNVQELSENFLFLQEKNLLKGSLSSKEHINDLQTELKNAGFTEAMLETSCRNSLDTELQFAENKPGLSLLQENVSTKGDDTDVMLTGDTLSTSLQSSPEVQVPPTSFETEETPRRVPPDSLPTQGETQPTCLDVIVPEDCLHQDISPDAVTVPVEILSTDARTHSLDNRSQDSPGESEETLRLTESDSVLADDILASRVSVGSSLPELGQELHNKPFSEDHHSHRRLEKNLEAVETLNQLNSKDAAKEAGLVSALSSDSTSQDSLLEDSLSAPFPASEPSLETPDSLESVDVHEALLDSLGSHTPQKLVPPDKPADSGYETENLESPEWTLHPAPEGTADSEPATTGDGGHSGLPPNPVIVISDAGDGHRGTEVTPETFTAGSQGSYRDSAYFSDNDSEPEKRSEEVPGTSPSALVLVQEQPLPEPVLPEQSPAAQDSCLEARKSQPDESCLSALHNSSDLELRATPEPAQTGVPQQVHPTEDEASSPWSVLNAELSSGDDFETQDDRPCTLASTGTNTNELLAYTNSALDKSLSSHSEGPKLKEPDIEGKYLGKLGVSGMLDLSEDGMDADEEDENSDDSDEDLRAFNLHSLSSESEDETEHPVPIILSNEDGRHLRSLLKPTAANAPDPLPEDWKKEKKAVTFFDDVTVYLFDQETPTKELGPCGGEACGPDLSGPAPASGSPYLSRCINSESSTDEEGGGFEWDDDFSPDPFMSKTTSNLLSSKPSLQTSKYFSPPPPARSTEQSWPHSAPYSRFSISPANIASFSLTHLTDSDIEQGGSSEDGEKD
UniProt P07948: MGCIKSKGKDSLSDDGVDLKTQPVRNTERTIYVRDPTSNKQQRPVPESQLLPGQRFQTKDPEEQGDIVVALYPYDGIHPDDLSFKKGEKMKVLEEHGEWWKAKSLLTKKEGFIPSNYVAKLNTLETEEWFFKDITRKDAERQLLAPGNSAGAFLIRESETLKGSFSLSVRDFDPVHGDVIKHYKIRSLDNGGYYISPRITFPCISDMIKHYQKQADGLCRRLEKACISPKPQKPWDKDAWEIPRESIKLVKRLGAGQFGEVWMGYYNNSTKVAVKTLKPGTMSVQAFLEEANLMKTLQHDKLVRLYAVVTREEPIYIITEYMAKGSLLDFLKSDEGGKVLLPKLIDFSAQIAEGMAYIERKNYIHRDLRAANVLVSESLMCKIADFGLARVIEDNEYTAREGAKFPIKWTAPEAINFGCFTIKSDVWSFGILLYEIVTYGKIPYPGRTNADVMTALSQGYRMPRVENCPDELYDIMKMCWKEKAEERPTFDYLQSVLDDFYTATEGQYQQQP

Each structure is given as a SMILES string. Where a name gives a salt, the structure may show the parent alone. The list shows a part of the results. The calls rarely recur for the same compound in another form.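 In K562 cells expressing nanoluciferase-fused kinases, luminescence was recorded at 4 h intervals between 2 and 18 h, normalized as percent of control with DMSO at 100% and a positive control at 0%. A significant (2 sigma) signal drop marks a time point as decreased. The authors' rule for a hit is not shown and takes in more than the number of time points.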

For the first assay, the target named is LMTK2 (UniProt Q8IWU2). Kind of assay: number of time points (of 5) at which kinase-Nluc abundance scored as decreased, DMSO-normalised (count); higher = more persistent destabilization. The settings on record: K562; 2-18 h.
As to `COc1cccc(OC)c1C(=O)OCc1cc(O)ccc1O[C@@H]1O[C@H](CO)[C@@H](O)[C@H](O)[C@H]1O` [Curculigoside] (10 µM), the “number of time points” value amounted to 0.
As to `Nc1ncnc2c1c(-c1ccc(Oc3ccccc3)cc1)nn2C1CCCC1` (2.5 µM), the “number of time points” value worked out at 0.
As for `CC#CC(=O)N1CC[C@@H](n2c(=O)n(-c3ccc(Oc4ccccc4)cc3)c3c(N)ncnc32)C1` [Tirabrutinib] (10 µM), the “number of time points” value turned out to be 0.

The target of another assay is LYN (UniProt P07948). Described as above. The settings on record: K562; 2-18 h.
Take `CCc1c(C(=O)NNC(=O)C(O)c2cc(F)cc(F)c2)ccc(O)c1C` (stereo unspecified) (10 µM): the “number of time points” value turned out to be 0.
`COc1cc2ncnc(Nc3ccc(Cl)cc3F)c2cc1OC` (10 µM): the “number of time points” value amounted to 0.
For `COc1cc(/C=C/C(=O)NCC(O)c2ccc(O)cc2)ccc1O` (stereo unspecified) [N-Feruloyloctopamine] (2.5 µM), the “number of time points” value was determined as 0.
As to `NC(=O)c1nc(Nc2ccccc2)sc1NC(=O)C1CCCCC1` (10 µM), the “number of time points” value was 0.
On to `O=c1cc(CN2CCOCC2)occ1OCCCCCSc1ccnc2cc(C(F)(F)F)ccc12` (10 µM), for which the “number of time points” value was 0.
As for `O=C(O)CCC(=O)Nc1ccc(Br)cn1` [Bikinin] (10 µM), the “number of time points” value was 0.
With `CC[C@@H](Oc1nc(Oc2cc(C)cc(-c3cccc(CN)c3)c2)c(F)cc1F)C(=O)O` (10 µM), the “number of time points” value stood at 0.
Still for that read-out and setting: the result for `C[C@]1(O)CCN(c2nc(N3C[C@H](O)[C@@H](O)C3)cc(C(F)(F)F)c2C#N)C1` (10 µM) reads 0; that for `COc1ccccc1-c1cc(Nc2cccc(CS(N)(=O)=O)c2)ncn1` (10 µM), 0; that for `CC(=O)c1c(C)cc2cccc(O)c2c1O` [Nepodin] (10 µM), 0.
On the same count and under the same terms, the result for `NC(=O)c1ccc2[nH]ccc2c1` (10 µM) reads 0.
As to `COc1cc2c(cc1OC)CN(S(=O)(=O)c1ccc(OC)c(N3CCN(C(=O)c4ccc(F)cc4C(F)(F)F)CC3)c1)CC2` (10 µM), the “number of time points” value is 0.
As for `OCCn1cc(-c2ccc3c(c2)CC/C3=N\O)c(-c2ccncc2)n1` (10 µM), the “number of time points” value is 0.
Same read-out and setting: the same measure for `C[C@@H]1CC[C@@H](Nc2nc(NC(C)(C)C)ncc2C(N)=O)C[C@H]1O` (10 µM): 0; for `CCc1cc2c(cc1N1CCC(N3CCOCC3)CC1)C(C)(C)c1[nH]c3cc(C#N)ccc3c1C2=O` [Alectinib] (10 µM): 0; for `COCCNc1nc2ccc(C#CC3(O)CCCCC3)cc2n1-c1ccnc(N)n1` (10 µM): 0.
The same measure, in the same setting: the result for `Cc1[nH]c(/C=C2\C(=O)Nc3ccccc32)c(C)c1CCC(=O)O` [Orantinib] (10 µM) reads 0; that for `Nc1cc(C(F)(F)F)c(-c2cc(N3CCOCC3)nc(N3CCOCC3)n2)cn1` [Buparlisib (Hydrochloride)] (2.5 µM), 0; that for `CCN1CCN(Cc2ccc(Nc3ncc(F)c(-c4cc(F)c5nc(C)n(C(C)C)c5c4)n3)nc2)CC1` [Abemaciclib (methanesulfonate)] (10 µM), 0.
Same read-out and setting: the same measure for `Cc1ccc2cc(-c3c(C)ccc(C(=O)c4c(-c5ccccc5)n(C)n(-c5ccccc5)c4=O)c3N)ccc2n1` (2.5 µM): 0; for `FC(F)(c1ccc2ncccc2c1)c1nnc2ccc(-c3ccncc3)nn12` (10 µM): 0.
`O=C1N[C@@H](Cc2c[nH]c3ccccc23)C(=O)N2CCC[C@@H]12` [Brevianamide F] (10 µM): the “number of time points” value worked out at 0.
Same read-out and setting: the result for `Cc1nc2sccn2c(=O)c1CCN1CCC(=C(c2ccccc2)c2ccc(F)cc2)CC1` (10 µM) reads 0.
For the compound `O=c1[nH]c(=O)n([C@@H]2O[C@H](CO)[C@@H](O)[C@@H]2O)cc1/C=C/Br` [Sorivudine] (10 µM), the “number of time points” value was 0.
On the same count and under the same terms, the result for `COc1cc2nccc(Oc3ccc(NC(=O)NC4CC4)c(Cl)c3)c2cc1C(N)=O` [Lenvatinib (mesylate)] (10 µM) reads 0.
`CN1C(=O)N[C@H](Cc2c[nH]c3c(Cl)cccc23)C1=O` [Necrostatin 2] (10 µM): the “number of time points” value is 0.
On the same count and under the same terms, the same measure for `CCN1CCN(Cc2ccc(Nc3ncc(F)c(-c4cc(F)c5nc(C)n(C(C)C)c5c4)n3)nc2)CC1` [Abemaciclib] (2 µM): 0; for `Cc1ccc2nc(NCCN)c3ncc(C)n3c2c1` (2.5 µM): 0.
Regarding `CNC(=O)c1c(F)cccc1Nc1nc(Nc2cc3c(cc2OC)CCN3C(=O)CN(C)C)nc2[nH]ccc12` (10 µM), the “number of time points” value turned out to be 0.
In the case of `Cn1nccc1Nc1nccc(-c2ccn([C@H](CO)c3ccc(Cl)c(F)c3)c(=O)c2)n1` [Ravoxertinib hydrochloride] (10 µM), the “number of time points” value was found to be 0.
With `CN(C)CCSSCCNC(=O)C1CCN(C(=O)CSc2ccc(Cl)cc2)CC1` (10 µM), the “number of time points” value worked out at 0.
Turning to `CNC(=O)c1cc(COc2nnc(Nc3ccc(Cl)cc3)c3ccoc23)ccn1` [Telatinib] (10 µM), the “number of time points” value was 0.
Still for that read-out and setting: the result for `NCCNS(=O)(=O)c1cccc2c(Cl)cccc12` [A-3 (hydrochloride)] (10 µM) reads 0.
Still for that read-out and setting: the result for `O=C(Nc1ccc(CN2CCOCC2)cc1)c1ccc(-c2cccc(Cl)c2)o1` (10 µM) reads 0; that for `CCN1CCN(Cc2ccc(-c3cc4c(N[C@H](C)c5ccccc5)ncnc4[nH]3)cc2)CC1` (2.5 µM), 0; that for `COc1cccc(OC)c1C(=O)OCc1cc(O)ccc1O[C@@H]1O[C@H](CO)[C@@H](O)[C@H](O)[C@H]1O` [Curculigoside] (10 µM), 0.
Turning to `Nc1ncnc2c1c(-c1ccc(Oc3ccccc3)cc1)nn2C1CCCC1` (2.5 µM), the “number of time points” value is 0.
In the case of `CC#CC(=O)N1CC[C@@H](n2c(=O)n(-c3ccc(Oc4ccccc4)cc3)c3c(N)ncnc32)C1` [Tirabrutinib] (10 µM), the “number of time points” value turned out to be 0.
